Test results published in paper doi:10.1101/047555.
No constants are given. Whether binding was seen depends on the method and setting. Binding calls can cover weak binding; strength is not graded here.

Columns and labels:
[1] = molecular target: EP2, MamE PDZ2 domain as 6xHis-MBP fusion (Magnetospirillum magneticum AMB-1); assay: phage display selection + ELISA
[2] = molecular target: EP1, MamE PDZ1 domain as 6xHis-MBP fusion (Magnetospirillum magneticum AMB-1); assay: phage display selection + ELISA

Binder | binding [1] | binding [2]
MEDYGIFMTSPEGPWA [phage-displayed peptide that dominated the selection on MamE PDZ2] | binds | 
WSQEMEDWFWQMPLSG [phage-displayed peptide that dominated the selection on MamE PDZ1] |  | binds
